We go through one compound from US20250011331A1 (Nimbus Saturn, Inc., priority 2021, published 2025).

Amino acid sequences for entries named in this document (tags omitted).
UniProt Q92918, whole entry: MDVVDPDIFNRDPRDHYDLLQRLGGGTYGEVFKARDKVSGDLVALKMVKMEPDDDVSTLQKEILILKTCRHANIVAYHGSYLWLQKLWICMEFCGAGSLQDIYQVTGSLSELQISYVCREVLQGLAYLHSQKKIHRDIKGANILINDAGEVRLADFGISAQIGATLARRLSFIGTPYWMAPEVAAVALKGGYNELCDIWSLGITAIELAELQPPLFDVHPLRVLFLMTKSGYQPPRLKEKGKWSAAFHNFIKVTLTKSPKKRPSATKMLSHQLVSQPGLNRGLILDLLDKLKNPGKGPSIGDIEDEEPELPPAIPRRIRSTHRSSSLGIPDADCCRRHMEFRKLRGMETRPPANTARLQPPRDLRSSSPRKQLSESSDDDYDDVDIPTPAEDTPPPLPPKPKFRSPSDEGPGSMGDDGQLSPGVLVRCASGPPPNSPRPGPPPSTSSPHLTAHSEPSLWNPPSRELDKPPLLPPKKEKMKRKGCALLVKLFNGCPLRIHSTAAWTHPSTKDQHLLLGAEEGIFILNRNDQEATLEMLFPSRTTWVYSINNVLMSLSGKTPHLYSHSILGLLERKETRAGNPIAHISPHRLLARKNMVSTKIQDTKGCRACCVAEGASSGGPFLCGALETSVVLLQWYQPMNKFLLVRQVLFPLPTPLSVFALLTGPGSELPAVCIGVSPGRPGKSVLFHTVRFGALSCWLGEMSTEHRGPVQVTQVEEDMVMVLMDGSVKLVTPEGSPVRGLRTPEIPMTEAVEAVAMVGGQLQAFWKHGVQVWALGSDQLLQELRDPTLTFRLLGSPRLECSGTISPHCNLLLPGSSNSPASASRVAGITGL

The assay addresses HPK1 (Homo sapiens, UniProt Q92918). Briefly: HPK1 biochemical enzyme assay (microfluidic mobility shift). The conditions noted are these: read-out: HPK1 1 mM ATP Caliper IC50, 1.5 nM HPK1 (Invitrogen), 30 min preincubation, 60 min at RT, Caliper EZ Reader. The method, then: HPK1 biochemical enzyme assay: HPK1 enzyme inhibition was measured using a microfluidic mobility shift assay. Reactions were performed in a 384-well plate, containing 1.5 nM HPK1 (Invitrogen), in assay buffer (Cama Biosciences; pH 7.4). Test compounds were titrated in ten point curves (top final assay concentration 3 μM), and preincubated with enzyme/substrate mix for 30 min prior to initiation of the reaction by addition of ATP (1 mM final concentration) and substrate (1 μM final concentration; Carna Biosciences) diluted in assay buffer supplemented by MgCl2 (final assay concentration of 5 mM). Following 60 min incubation at RT, the reaction was terminated by addition of 60 μl/well termination buffer (Carna Biosciences) and signal determination using a Caliper EZ Reader (Perkin Elmer, UK).

Structures were worked out from names or drawings and are uncertain.

As to `CN(C)Cc1nc(Nc2ccc(-c3cnc4cc(C#N)ccn34)c3c2C(=O)NC3)ccc1C1CCOCC1`, the IC50 is under 100 nM.

By IC50 is commonly meant the midpoint of a concentration-inhibition curve.
